Measured data: PubChem BioAssay AID504764 (Drosophila RNAi Screening Center, 2011)
Screen: 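Knock-downs that raise or lower a Notch target reporter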 (primary screen). System: Drosophila Kc167 cells. Reagent: long dsRNA against Drosophila genes. Timing: about 5 days (4 days dsRNA, then 24 h after transfection). Challenge: transfection of constitutively active membrane-tethered Notch lacking the extracellular domain, read 24 h later. Measured: 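Firefly luciferase from an E(spl)m3 reporter with active Notch, plus control-promoter and uninduced reporter wells for normalisation; unnormalised counts, duplicate wells a and b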. Scale: induced reporter light, run 1, well a and induced reporter light, run 1, well b: higher = more light from the Notch target reporter with active Notch; control promoter light, run 1, well a and control promoter light, run 1, well b: higher = more light from the viral control promoter (cell number, transfection, viability); uninduced reporter light, run 1, well a: higher = more light from the Notch target reporter without active Notch. Hit rule: 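Hit if the duplicate-averaged log2 ratio of induced to control-promoter light gives a plate-wise z beyond ±2, or induced to uninduced beyond ±1.8; weak-control or discordant-duplicate wells dropped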. Calls: active = modifier hit (raised or lowered Notch signal); inactive = not a hit.
The deposit covers about 22,000 reagents; below is a random part of those that have a named target and a result. In the full data, 403 (1.9%) were called active. 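Unnormalised raw counts per well; ratio z-scores behind the hit calls and whether each hit raises or lowers signal are not deposited.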 Names joined by + are all predicted targets of the reagent. The record does not give: the amount of reagent.

target	dsRNA	induced reporter light, run 1, well a	induced reporter light, run 1, well b	control promoter light, run 1, well a	control promoter light, run 1, well b	uninduced reporter light, run 1, well a	outcome
Prp19 (GeneID 37123)	DRSC07434	26755	20988	18528	22240	2645	inactive
Diedel (GeneID 43474)	DRSC14317	1.15e5	1.17e5	1.90e5	1.83e5	10785	inactive
Hsp67Ba (GeneID 39076)	DRSC11191	1.28e5	87095	1.25e5	1.19e5	7710	inactive
CG14644 (GeneID 40536)	DRSC12230	37200	45435	34790	32350	3450	inactive
Tsp42Ec (GeneID 35612)	DRSC06192	1.75e5	2.10e5	2.42e5	2.13e5	16240	inactive
CG13671 (GeneID 38932)	DRSC10030	68550	1.05e5	78910	22330	9050	inactive
CG7120 (GeneID 38954)	DRSC10773	1.40e5	1.25e5	1.58e5	1.38e5	5300	inactive
Ndg (GeneID 36089)	DRSC06223	96660	85760	62025	71775	6680	inactive
CG5292 (GeneID 42079)	DRSC15763	1.91e5	2.22e5	2.38e5	1.86e5	17535	inactive
pasi2 (GeneID 41113)	DRSC16380	1.39e5	1.32e5	1.10e5	73260	5505	inactive
msps (GeneID 41952)	DRSC17004	1.31e5	1.23e5	1.86e5	1.57e5	14428	inactive
CG42808 + CG42807	DRSC06370	1.88e5	1.47e5	1.74e5	1.33e5	13290	inactive
CG42808 + CG42807	DRSC06966	1.34e5	92275	1.41e5	1.13e5	11025	inactive
btd (GeneID 31912)	DRSC18747	51875	60230	1.09e5	1.16e5	2915	inactive
CG30383 (GeneID 246583)	DRSC05062	49025	46785	62020	59500	2388	inactive
eIF5B (GeneID 44261)	DRSC08429	1.26e5	1.65e5	2.02e5	1.68e5	6425	inactive
eIF5B (GeneID 44261)	DRSC08710	89135	87240	1.45e5	1.24e5	5860	inactive
Rdl (GeneID 39054)	DRSC11264	1.07e5	87715	77190	35235	9265	inactive
Alp4 (GeneID 43671)	DRSC14116	1.38e5	1.20e5	1.56e5	1.69e5	9605	inactive
crc (GeneID 47767)	DRSC03513	73695	48525	71110	59250	5650	inactive

Just “induced reporter light, run 1, well b”, for 2 of the entries above:
Hsp67Ba (GeneID 39076) [DRSC11191]	87095
CG14644 (GeneID 40536) [DRSC12230]	45435
